From PubChem BioAssay (Tox21)
Values joined by “and” are separate entries in the source; they are usually repeats but may differ in a detail not shown here. Equal entries are not always repeated. This list was built around the results that the source calls inconclusive (neither active nor inactive); the mix of calls is not that of the screen. For some of these results: Where the call is inconclusive, the potency comes from a doubtful curve fit. Active and inactive are the calls of the source. Unless noted, calls follow the shape of the dose curve; as a rule, active = well fitted curve in the direction sought with a large enough effect in the repeat runs; inconclusive = weak or mixed curves; inactive = no such curve, though single readings can be large; an effect the other way counts as inactive or inconclusive.

Protein sequences, listed by entry. Tags and fused reporters are not part of them. Lines headed by an entry give the natural chain unless they say otherwise; changes in a name come on top.
UniProt P19793: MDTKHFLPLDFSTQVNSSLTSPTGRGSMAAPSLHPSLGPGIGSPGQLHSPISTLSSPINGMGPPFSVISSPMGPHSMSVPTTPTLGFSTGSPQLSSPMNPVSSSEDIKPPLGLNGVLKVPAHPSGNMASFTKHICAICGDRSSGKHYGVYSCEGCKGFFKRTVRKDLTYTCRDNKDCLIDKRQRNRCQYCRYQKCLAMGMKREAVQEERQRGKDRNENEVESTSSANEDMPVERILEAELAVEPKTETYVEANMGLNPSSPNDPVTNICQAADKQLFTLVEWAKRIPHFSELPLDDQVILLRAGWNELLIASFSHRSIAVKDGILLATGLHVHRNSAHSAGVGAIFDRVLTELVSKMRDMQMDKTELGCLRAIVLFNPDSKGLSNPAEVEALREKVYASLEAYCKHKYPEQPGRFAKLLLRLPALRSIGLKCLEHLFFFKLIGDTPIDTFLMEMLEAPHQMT
UniProt P05177, whole entry, looked up: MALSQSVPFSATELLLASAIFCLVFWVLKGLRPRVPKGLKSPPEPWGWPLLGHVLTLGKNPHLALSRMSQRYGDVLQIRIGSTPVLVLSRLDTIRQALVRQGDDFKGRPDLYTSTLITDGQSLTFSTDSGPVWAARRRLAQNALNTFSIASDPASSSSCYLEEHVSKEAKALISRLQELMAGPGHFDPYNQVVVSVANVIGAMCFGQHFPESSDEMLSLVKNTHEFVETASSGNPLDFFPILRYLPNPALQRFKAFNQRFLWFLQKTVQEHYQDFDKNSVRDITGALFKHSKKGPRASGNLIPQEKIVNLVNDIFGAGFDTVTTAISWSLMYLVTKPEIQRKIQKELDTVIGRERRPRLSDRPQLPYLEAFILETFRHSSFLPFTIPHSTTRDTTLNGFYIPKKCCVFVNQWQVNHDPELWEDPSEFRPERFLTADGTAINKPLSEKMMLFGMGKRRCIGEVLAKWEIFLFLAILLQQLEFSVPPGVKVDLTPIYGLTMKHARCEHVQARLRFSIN
UniProt P04150: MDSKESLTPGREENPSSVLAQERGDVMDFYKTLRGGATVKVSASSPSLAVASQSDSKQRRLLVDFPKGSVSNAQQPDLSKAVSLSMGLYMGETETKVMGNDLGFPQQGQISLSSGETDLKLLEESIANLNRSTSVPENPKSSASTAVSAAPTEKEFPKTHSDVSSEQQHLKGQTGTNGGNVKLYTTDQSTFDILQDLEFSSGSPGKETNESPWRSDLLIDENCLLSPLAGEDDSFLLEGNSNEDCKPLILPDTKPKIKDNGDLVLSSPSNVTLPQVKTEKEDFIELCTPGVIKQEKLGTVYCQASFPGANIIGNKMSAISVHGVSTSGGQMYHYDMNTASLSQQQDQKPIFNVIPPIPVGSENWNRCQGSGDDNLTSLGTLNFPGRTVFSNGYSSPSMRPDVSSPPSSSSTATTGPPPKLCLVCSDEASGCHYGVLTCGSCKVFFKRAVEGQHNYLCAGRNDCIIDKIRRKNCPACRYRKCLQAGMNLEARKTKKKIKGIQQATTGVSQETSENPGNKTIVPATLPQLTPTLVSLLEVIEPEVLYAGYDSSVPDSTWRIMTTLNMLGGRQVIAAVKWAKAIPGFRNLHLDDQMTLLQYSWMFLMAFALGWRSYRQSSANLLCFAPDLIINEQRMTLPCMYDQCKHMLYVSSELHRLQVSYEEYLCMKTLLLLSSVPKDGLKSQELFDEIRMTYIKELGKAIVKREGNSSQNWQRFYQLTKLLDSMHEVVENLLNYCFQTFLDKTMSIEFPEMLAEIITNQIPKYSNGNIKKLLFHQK
UniProt P11473: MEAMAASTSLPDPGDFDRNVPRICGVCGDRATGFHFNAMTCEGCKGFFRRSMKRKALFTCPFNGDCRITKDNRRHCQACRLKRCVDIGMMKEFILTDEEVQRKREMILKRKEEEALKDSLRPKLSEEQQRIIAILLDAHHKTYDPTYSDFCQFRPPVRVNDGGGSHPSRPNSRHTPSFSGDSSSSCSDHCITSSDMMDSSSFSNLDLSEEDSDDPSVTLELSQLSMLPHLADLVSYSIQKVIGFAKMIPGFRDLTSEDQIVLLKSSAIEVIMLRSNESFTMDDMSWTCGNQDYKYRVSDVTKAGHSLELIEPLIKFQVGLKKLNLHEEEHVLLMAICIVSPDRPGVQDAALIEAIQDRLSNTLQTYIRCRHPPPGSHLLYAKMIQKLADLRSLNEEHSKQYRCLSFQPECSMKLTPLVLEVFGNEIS
UniProt P11712, whole entry, looked up: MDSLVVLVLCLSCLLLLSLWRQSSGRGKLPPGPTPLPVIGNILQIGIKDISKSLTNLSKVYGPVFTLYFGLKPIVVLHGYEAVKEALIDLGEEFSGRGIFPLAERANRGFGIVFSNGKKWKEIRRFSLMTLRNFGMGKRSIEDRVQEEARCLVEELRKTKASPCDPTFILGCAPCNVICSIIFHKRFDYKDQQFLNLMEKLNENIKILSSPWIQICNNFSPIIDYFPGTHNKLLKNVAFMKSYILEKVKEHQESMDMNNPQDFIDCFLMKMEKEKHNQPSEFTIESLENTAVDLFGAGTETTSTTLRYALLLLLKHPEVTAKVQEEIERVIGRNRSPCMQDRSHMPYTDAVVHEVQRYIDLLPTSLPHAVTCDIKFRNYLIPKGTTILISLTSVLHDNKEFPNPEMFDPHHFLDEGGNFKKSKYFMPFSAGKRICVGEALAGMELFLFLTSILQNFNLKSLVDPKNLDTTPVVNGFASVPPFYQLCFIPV
UniProt P33261, whole entry, looked up: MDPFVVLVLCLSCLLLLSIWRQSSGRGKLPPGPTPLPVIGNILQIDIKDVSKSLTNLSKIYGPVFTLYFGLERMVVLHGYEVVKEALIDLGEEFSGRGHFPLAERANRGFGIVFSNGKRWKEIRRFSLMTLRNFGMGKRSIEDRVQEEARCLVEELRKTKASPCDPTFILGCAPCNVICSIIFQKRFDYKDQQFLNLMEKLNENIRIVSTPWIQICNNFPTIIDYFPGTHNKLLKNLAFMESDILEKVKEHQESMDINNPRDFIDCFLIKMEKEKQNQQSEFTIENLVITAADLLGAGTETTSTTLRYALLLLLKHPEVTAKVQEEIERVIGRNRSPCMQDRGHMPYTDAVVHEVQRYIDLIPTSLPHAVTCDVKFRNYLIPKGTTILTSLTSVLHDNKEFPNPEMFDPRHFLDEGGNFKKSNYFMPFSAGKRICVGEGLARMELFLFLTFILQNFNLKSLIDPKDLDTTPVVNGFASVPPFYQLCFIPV
UniProt P03372, whole entry, looked up: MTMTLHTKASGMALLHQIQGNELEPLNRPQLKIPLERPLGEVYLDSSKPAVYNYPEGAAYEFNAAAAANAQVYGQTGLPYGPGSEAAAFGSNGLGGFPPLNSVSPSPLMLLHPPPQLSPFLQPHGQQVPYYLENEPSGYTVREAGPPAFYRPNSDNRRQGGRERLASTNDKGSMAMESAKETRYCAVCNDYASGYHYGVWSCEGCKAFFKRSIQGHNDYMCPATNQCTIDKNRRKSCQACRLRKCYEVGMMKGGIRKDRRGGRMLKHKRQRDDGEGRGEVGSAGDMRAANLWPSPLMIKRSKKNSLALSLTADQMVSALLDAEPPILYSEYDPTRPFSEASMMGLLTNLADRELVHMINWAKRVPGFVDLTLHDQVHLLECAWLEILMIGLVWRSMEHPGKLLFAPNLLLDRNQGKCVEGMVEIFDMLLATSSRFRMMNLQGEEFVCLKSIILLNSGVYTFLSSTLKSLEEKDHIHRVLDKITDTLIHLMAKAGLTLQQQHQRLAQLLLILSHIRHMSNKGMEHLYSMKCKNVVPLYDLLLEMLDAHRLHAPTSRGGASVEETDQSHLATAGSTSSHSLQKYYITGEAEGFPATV
UniProt P16473, whole entry, looked up: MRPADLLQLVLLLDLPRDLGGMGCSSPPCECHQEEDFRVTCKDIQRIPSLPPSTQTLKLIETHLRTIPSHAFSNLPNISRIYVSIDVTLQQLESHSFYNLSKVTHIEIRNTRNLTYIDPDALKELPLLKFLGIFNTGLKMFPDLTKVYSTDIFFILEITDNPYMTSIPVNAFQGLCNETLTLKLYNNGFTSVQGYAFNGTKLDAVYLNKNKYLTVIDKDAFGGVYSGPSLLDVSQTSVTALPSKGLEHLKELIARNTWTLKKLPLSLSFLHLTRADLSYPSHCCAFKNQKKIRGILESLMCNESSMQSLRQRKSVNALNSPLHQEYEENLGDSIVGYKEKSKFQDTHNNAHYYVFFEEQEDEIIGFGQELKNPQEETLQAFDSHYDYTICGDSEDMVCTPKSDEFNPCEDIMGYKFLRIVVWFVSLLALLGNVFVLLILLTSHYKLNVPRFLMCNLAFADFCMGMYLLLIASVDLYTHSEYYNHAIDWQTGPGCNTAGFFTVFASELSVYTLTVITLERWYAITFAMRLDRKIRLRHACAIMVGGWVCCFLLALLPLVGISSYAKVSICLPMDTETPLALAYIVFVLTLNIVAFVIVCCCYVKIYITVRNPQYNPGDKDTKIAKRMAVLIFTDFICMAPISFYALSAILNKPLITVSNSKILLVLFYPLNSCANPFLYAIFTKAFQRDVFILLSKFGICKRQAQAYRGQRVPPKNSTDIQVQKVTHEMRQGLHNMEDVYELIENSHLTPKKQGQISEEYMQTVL
UniProt Q92731, whole entry, looked up: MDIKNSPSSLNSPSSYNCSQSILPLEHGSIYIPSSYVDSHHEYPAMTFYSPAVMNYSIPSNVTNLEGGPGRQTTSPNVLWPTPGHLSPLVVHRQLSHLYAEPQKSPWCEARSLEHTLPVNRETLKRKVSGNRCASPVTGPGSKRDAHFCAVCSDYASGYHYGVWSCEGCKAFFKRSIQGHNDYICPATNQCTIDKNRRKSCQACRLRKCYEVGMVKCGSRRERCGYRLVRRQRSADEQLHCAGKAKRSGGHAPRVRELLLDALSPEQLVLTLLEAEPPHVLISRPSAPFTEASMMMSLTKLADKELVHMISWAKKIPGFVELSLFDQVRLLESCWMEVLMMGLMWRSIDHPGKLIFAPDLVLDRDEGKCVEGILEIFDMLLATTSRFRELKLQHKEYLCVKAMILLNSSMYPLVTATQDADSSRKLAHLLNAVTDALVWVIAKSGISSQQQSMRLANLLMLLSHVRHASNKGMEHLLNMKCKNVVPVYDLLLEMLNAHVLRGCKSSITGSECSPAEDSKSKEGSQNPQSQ
UniProt P37231: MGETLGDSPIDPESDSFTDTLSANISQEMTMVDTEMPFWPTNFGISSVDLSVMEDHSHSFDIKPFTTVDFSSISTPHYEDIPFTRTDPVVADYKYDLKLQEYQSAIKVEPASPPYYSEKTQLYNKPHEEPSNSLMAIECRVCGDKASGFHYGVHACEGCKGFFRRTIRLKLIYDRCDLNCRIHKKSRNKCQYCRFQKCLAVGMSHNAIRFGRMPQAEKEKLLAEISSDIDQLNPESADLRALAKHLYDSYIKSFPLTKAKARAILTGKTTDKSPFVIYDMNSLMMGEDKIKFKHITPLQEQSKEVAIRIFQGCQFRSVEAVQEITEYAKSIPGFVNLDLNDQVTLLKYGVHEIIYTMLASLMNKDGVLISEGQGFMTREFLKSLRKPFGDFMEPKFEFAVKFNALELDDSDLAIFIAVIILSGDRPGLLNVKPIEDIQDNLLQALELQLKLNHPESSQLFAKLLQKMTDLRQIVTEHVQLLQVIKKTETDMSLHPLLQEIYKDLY

Experiments:
[1] = target: Retinoic acid receptor RXR-alpha (Homo sapiens) (UniProt P19793); assay: qHTS assay to identify small molecule agonists of the RXR signaling pathway (AID 1159527; calls by dose curve; also: % is scaled to controls: 0 for no effect and ±100 for the full control effect; nearly all actives have a fitted effect of over 35% in size); conditions: HEK293T RXRa-UAS-bla, beta-lactamase ratio, 16 h; activation: at 76.8 µM (top of the series) unless noted
Summary of the method: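 Reporter activation is measured as beta-lactamase activity via FRET substrate cleavage (emission 460/530 nm) in HEK 293T cells expressing an RXR-alpha-driven bla construct, following 16 hr compound exposure at 37 C.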

[2] = target: Cytochrome P450 1A2 (Homo sapiens) (UniProt P05177); assay: Cytochrome P450 Family 1 Subfamily A Member 2 (CYP1A2) small molecule antagonists: luciferase reporter qHTS assay (AID 1671199); also: nearly all actives have a fitted effect of over 50% in size; also: potency is read from the fitted curve at half-maximal effect
Summary of the method: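 Compounds were incubated with CYP1A2 and a luminogenic proluciferin substrate for 10 min at room temperature before the reaction was started with NADPH regeneration solution. After 1 h, detection reagent was added and light output, proportional to CYP activity, was recorded.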

[3] = qHTS assay for small molecule disruptors of the mitochondrial membrane potential (AID 720635); conditions: HepG2 mitochondrial membrane potential, Mito-MPS dye ratio; ratio activity, negative = MMP loss: at 83.2 µM (top of the series) unless noted; also: potency is read from the fitted curve at half-maximal effect; as to ratio activity, negative = MMP loss: % is scaled to controls: 0 for no effect and ±100 for the full control effect
Summary of the method: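 HepG2 cells exposed to compound 1 hr at 37C, then Mito-MPS dye 30 min. Ratio read of aggregate (540/590 nm) versus monomer (490/535 nm) fluorescence.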

[4] = target: Glucocorticoid receptor (Homo sapiens) (UniProt P04150); assay: qHTS assay to identify small molecule antagonists of the glucocorticoid receptor (GR) signaling pathway (AID 720692; active = well fitted inhibition curve with a large enough effect in the signal ratio in the repeat runs, not every such curve was filed as active; inconclusive = weak or mixed curves, or effect the other way; inactive = no such curve, though single readings can be large or run the other way; the % refers to the signal ratio; also: % is scaled to controls: 0 for no effect and ±100 for the full control effect); conditions: GR-bla HeLa, beta-lactamase FRET ratio, dexamethasone-stimulated, 18 h; activity change, negative = inhibition: at 58.5 µM (top of the series) unless noted
Summary of the method: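 Antagonism was scored as loss of dexamethasone-driven (5 nM final) reporter signal in HeLa cells bearing a glucocorticoid response element–beta-lactamase construct, after 18 h compound exposure at 37 C and 2 h FRET substrate loading.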

[5] = qHTS assay for identifying genotoxic compounds that show differential cytotoxicity against isogenic chicken DT40 cell lines with known DNA damage response pathways - wild type cell line (AID 743012); conditions: DT40 wild type chicken cells viability, CellTiter-Glo, 40 h; activity change, negative = cytotoxicity: at 68.4 µM (top of the series) unless noted; also: nearly all actives have a fitted effect of over 60% in size; also: potency is read from the fitted curve at half-maximal effect
Summary of the method: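 Cytotoxicity in repair-proficient parental chicken DT40 cells serves as the comparator for Rad54/Ku70- and Rev3-deficient lines. Cells were exposed to compounds for 40 h at 37 C/5% CO2, and ATP-based luminescence (CellTiter-Glo) measured viability.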

[6] = qHTS assay for small molecule agonists of the antioxidant response element (ARE) signaling pathway (AID 743202; active = well fitted activation curve with a large enough effect in the signal ratio in the repeat runs, not every such curve was filed as active; inconclusive = weak or mixed curves, or effect the other way; inactive = no such curve, though single readings can be large or run the other way; the % refers to the signal ratio; also: potency is read from the fitted curve at half-maximal effect; as to activation: % is scaled to controls: 0 for no effect and ±100 for the full control effect); conditions: HepG2 ARE-bla reporter, beta-lactamase FRET, 16 h; activation: at 73.3 µM (top of the series) unless noted
Summary of the method: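 HepG2 ARE-bla reporter line, 2,000 cells/well; 5 h preincubation 37 C/5% CO2; compound (DMSO) 16 h 37 C; B/G FRET substrate 2 h RT; fluorescence intensity.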

[7] = target: Vitamin D3 receptor (Homo sapiens) (UniProt P11473); assay: qHTS assay to identify small molecule antagonists of the vitamin D receptor (VDR) signaling pathway (AID 743223; active = well fitted inhibition curve with a large enough effect in the signal ratio in the repeat runs, not every such curve was filed as active; inconclusive = weak or mixed curves, or effect the other way; inactive = no such curve, though single readings can be large or run the other way; the % refers to the signal ratio; also: potency is read from the fitted curve at half-maximal effect); conditions: VDR-UAS-bla HEK293T, beta-lactamase FRET ratio, 16 h; activity change, negative = inhibition: at 61 µM (top of the series) unless noted
Summary of the method: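 After VDR-bla cells are plated and left 4 h at 37C, DMSO-dissolved compounds and 3 nM (final) calcitriol agonist are added. Incubation continues 16 h at 37C; FRET beta-lactamase substrate then develops 2 h at room temperature.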

[8] = qHTS assay for identifying genotoxic compounds that show differential cytotoxicity against isogenic chicken DT40 cell lines with known DNA damage response pathways - Rev3 mutant cell line (AID 743014); conditions: chicken DT40 Rev3-/- viability, CellTiter-Glo, 40 h; activity, negative = cytotoxicity: at 68.4 µM (top of the series) unless noted; also: nearly all actives have a fitted effect of over 55% in size; also: potency is read from the fitted curve at half-maximal effect
[9] = target: Cytochrome P450 2C9 (Homo sapiens) (UniProt P11712); assay: Cytochrome P450 Family 2 Subfamily C Member 9 (CYP2C9) small molecule antagonists: luciferase reporter qHTS assay (AID 1671198); also: potency is read from the fitted curve at half-maximal effect; nearly all actives have a fitted effect of over 50% in size
Summary of the method: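 P450-Glo proluciferin substrate with CYP2C9 enzyme; 10 min RT preincubation, then NADPH regeneration 1 h at 37C; luciferin detection reagent 20 min RT, luminescence in relative luminescence units.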

[10] = qHTS assay for small molecule agonists of the p53 signaling pathway (AID 651631; calls by dose curve; also: nearly all actives have a fitted effect of over 15% in size; also: potency is read from the fitted curve at half-maximal effect); conditions: HCT-116 p53RE-bla reporter, beta-lactamase FRET ratio, 16 h; activation: at 73.3 µM (top of the series) unless noted
Summary of the method: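 Fluorescence intensity from cleaved LiveBLAzer B/G substrate (2 h, room temperature) served as the signal. Beforehand, HCT-116 reporter cells bearing p53 response elements were treated 16 h at 37 °C with DMSO-dissolved compounds.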

[11] = qHTS assay to identify small molecule agonists of the farnesoid-X-receptor (FXR) signaling pathway - cell viability counter screen (AID 743218); conditions: FXR-bla HEK293T viability, CellTiter-Glo luminescence, 16 h; viability change, negative = cytotoxic: at 62.6 µM (top of the series) unless noted; also: potency is read from the fitted curve at half-maximal effect; nearly all actives have a fitted effect of over 45% in size
Summary of the method: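 Cells were seeded, left 5 h at 37 C and 5% CO2, then dosed with compound in DMSO for 16 h. After the beta-lactamase FRET read, CellTiter-Glo was added and luminescence measured 30 min later.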

[12] = qHTS assay to identify small molecule agonists of the progesterone receptor (PR) signaling pathway - cell viability counter screen (AID 1346799; calls by dose curve; also: nearly all actives have a fitted effect of over 45% in size; also: potency is read from the fitted curve at half-maximal effect)
Summary of the method: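 Viability was scored by ATP luminescence (CellTiter-Glo, 30 min, room temperature) in the same wells used for the reporter readout, after 16 hr compound exposure of PR-UAS-bla HEK293T cells.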

[13] = target: Cytochrome P450 2C19 (Homo sapiens) (UniProt P33261); assay: Cytochrome P450 Family 2 Subfamily C Member 19 (CYP2C19) small molecule antagonists: luciferase reporter qHTS assay (AID 1671197); also: potency is read from the fitted curve at half-maximal effect; nearly all actives have a fitted effect of over 65% in size
Summary of the method: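 Compounds were tested on CYP2C19 activity via proluciferin conversion to luciferin. The 37C, 1 h reaction followed NADPH addition; detection reagent stopped it.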

[14] = target: Estrogen receptor (Homo sapiens) (UniProt P03372); assay: qHTS assay to identify small molecule agonists of the estrogen receptor alpha (ER-alpha) signaling pathway using the BG1 cell line (AID 743079); conditions: BG1Luc4E2 cells, ERE-luciferase agonist, 22 h; activation: at 70.3 µM (top of the series) unless noted; also: % is scaled to controls: 0 for no effect and ±100 for the full control effect; nearly all actives have a fitted effect of over 20% in size
[15] = target: Thyrotropin receptor (Homo sapiens) (UniProt P16473); assay: qHTS assay to identify small molecule agonists of the thyroid stimulating hormone receptor (TSHR) signaling pathway (AID 1224843; calls by dose curve; also: % is scaled to controls: 0 for no effect and ±100 for the full control effect; nearly all actives have a fitted effect of over 45% in size); conditions: TSHR-HEK293 cells, cAMP HTRF, agonist mode, 30 min; activation: at 92.4 µM (top of the series) unless noted
Summary of the method: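 HEK293/TSHR, 800 cells/well; cpd 30 min RT; add cAMP-d2 + anti-cAMP-cryptate, 1 h RT; fluorescence read on plate reader. 15-pt titration, n=3.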

[16] = target: Estrogen receptor beta (Homo sapiens) (UniProt Q92731); assay: qHTS assay to identify small molecule antagonists of the estrogen receptor beta (ER-beta) signaling pathway (AID 1259378; active = well fitted inhibition curve with a large enough effect in the signal ratio in the repeat runs, not every such curve was filed as active; inconclusive = weak or mixed curves, or effect the other way; inactive = no such curve, though single readings can be large or run the other way; the % refers to the signal ratio; also: % is scaled to controls: 0 for no effect and ±100 for the full control effect); conditions: ER-beta-UAS-bla HEK293T, beta-lactamase FRET ratio, 16 h; activity, negative = inhibition: at 92.4 µM (top of the series) unless noted
Summary of the method: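 ER-beta-UAS-bla HEK293T cells in 2% charcoal-stripped FBS medium treated with compound plus 1nM final 17-beta-estradiol for 16 hr at 37C. Beta-lactamase reporter read by FRET substrate fluorescence after 2 hours at room temperature.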

[17] = qHTS assay to identify small molecule antagonists of the thyroid receptor (TR) signaling pathway - cell viability counter screen (AID 743064); conditions: GH3.TRE-Luc viability, CellTiter-Fluor, 24 h; activity change, negative = cytotoxic: at 70.3 µM (top of the series) unless noted; also: potency is read from the fitted curve at half-maximal effect; nearly all actives have a fitted effect of over 50% in size
Summary of the method: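 Same-well viability check: GH3.TRE-Luc cells stimulated with 1 nM T3 alongside test compound for 23.5 h, followed by CellTiter-Fluor fluorescence.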

[18] = target: Peroxisome proliferator-activated receptor gamma (Homo sapiens) (UniProt P37231); assay: qHTS assay to identify small molecule antagonists of the peroxisome proliferator-activated receptor gamma (PPARg) signaling pathway (AID 743191; calls by dose curve; also: % is scaled to controls: 0 for no effect and ±100 for the full control effect; nearly all actives have a fitted effect of over 30% in size); conditions: HEK293H PPARg-UAS-bla, beta-lactamase ratio, antagonist, 17 h; ratio activity, negative = inhibition: at 62.6 µM (top of the series) unless noted
Summary of the method: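 GeneBLAzer PPARg UAS-bla HEK293H cells, 5 h post-plating, exposed to compounds 17 h at 37C. LiveBLAzer B/G FRET substrate added for 1 h at room temperature; beta-lactamase reporter read by fluorescence intensity.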

**Q.** For O=c1cc[nH]cc1, which activation [1] is on record?
**A.** inconclusive: -15.1%

**Q.** And the Potency [2]?
**A.** inconclusive: 63.3 µM [inhibitor, partial curve, poor fit]

**Q.** With S=c1[nH][nH]c(=S)s1 as the compound, how does the ratio activity, negative = MMP loss [3] read?
**A.** inconclusive: 23.1%

**Q.** And the Potency [4]?
**A.** inactive

**Q.** And the Potency [5]?
**A.** inconclusive: 68.6 µM [cytotoxic, single point]

**Q.** And the activation [6]?
**A.** inconclusive: 21.7%

**Q.** And the Potency [7]?
**A.** inconclusive: 54.9 µM [activator, single point]

**Q.** And the activation [1]?
**A.** inconclusive: 5.56%

**Q.** And the Potency [2]?
**A.** inactive

**Q.** Which Potency [1] does the source give for COc1ccccc1C=O here?
**A.** inactive

**Q.** For COC(C)(C)CCCC(C)CC=O (centres undefined), which Potency [3] is on record?
**A.** inconclusive: 96.9 nM [activator, full curve, poor fit]

**Q.** What about the Potency [8] of the same compound?
**A.** inactive

**Q.** And the Potency [1]?
**A.** inactive

**Q.** What about the Potency [9] of the same compound?
**A.** inconclusive: 44.8 µM [inhibitor, partial curve, poor fit]

**Q.** What does the source list for CCOC(=S)SSC(=S)OCC?
**A.** activation [10]: inconclusive: 2.88%; Potency [3]: inactive and inconclusive: 2.73 µM [inhibitor, single point]; Potency [4]: inactive; Potency [5]: inactive; Potency [6]: inactive; Potency [11]: inconclusive: 34.7 µM [rising, partial curve, poor fit]; Potency [7]: inactive; activation [1]: inconclusive: -18.6%; Potency [12]: inconclusive: 0.193 µM [cytotoxic, single point]; Potency [13]: inconclusive: 89.4 µM [inhibitor, single point]; Potency [2]: inconclusive: 63.3 µM [inhibitor, partial curve, poor fit]

**Q.** What does the source list for c1ccc(CCCc2ccccn2)cc1?
**A.** Potency [10]: inconclusive: 15.4 µM [falling, partial curve, poor fit]; Potency [3]: inconclusive: 12200 nM [rising, full curve, poor fit]; activation [14]: inconclusive: -2.45% [phenotype inactive]; activity change, negative = inhibition [7]: inconclusive: -8.23%; Potency [1]: inactive; activation [15]: inconclusive: -26.6%; Potency [16]: inactive; Potency [12]: inactive

**Q.** With Clc1cc(Cl)c(Cl)c(Cl)c1Cl as the compound, how does the ratio activity, negative = MMP loss [3] read?
**A.** inconclusive: -42.4%

**Q.** What about the Potency [6] of the same compound?
**A.** inactive

**Q.** And the Potency [1]?
**A.** inactive

**Q.** And the Potency [2]?
**A.** inactive

**Q.** Which Potency [10] does the source give for NNC(=O)c1ccncc1 here?
**A.** inactive

**Q.** What about the Potency [3] of the same compound?
**A.** inconclusive: 13.3 µM [inhibitor, single point] and inactive and inconclusive: 1.81 µM [activator]

**Q.** What about the Potency [5] of the same compound?
**A.** inconclusive: 28.7 µM [cytotoxic, single point]

**Q.** What about the Potency [8] of the same compound?
**A.** inconclusive: 28.7 µM [cytotoxic, single point]

**Q.** And the Potency [17]?
**A.** inconclusive: 11.4 µM [rising, single point]

**Q.** What about the activation [14] of the same compound?
**A.** inconclusive: 9.82% [phenotype inactive] [at 95 µM]

**Q.** What about the ratio activity, negative = inhibition [18] of the same compound?
**A.** inconclusive: 5.64% [at 29.1 µM]

**Q.** What about the Potency [6] of the same compound?
**A.** inconclusive: 2.03 µM [falling, partial curve, poor fit]

**Q.** And the Potency [7]?
**A.** inconclusive: 0.19 µM [inhibitor, full curve, poor fit]

**Q.** What about the activation [1] of the same compound?
**A.** inconclusive: -24.1% [at 35.3 µM]

**Q.** And the Potency [15]?
**A.** inactive

**Q.** What about the Potency [9] of the same compound?
**A.** inconclusive: 15.5 µM [inhibitor, partial curve]
